The values below come from article PMC2645672, “Mechanism of Neuronal versus Endothelial Cell Uptake of Alzheimer's Disease Amyloid β Protein” (PLoS ONE, 2009).

The test system of series [1] is differentiated PC12 cells. As to the kind of experiment: Cellular uptake and localization by microscopy in differentiated PC12 cells.
Series [2] relates to rat primary hippocampal (RPH) neurons. The series is described as follows: Cellular uptake and localization by microscopy in rat primary hippocampal neurons. Particulars: 15 µg/ml F-Aβ40 and 75 nM Lysotracker Red, 30 min, 37°C.

On to F-Aβ40: fluorescein labeled human Aβ40, for which the “Co-localization with AF647-CT (caveolae mediated endocytosis marker)” value in series [1] is “co-localized very slightly”. In addition, the “Co-localization with LysoTracker red (acidic compartments)” value in series [1] (15 µg/ml F-Aβ40 and 75 nM Lysotracker Red in DMEM, 30 min, 37°C) was “only a partial co-localization”. Also, the “Co-localization with Dil-LDL (late endosomes)” value in series [1] (15 µg/ml F-Aβ40 and 15 µg/ml Dil-LDL, 15 and 30 min, 37°C) is given as “partial co-localization”. Further, in series [2], the “Site of accumulation in RPH neurons (Lysotracker Red predominantly in the cell body)” value was “in the neurites”.
